Measured values from patent US20220348569A1 (priority 2021, published 2022).

Assay: in vitro
Details: human, Caco-2, pH 7.4

## CC(C)NCC(O)COc1ccc(CC(N)=O)cc1 (stereo not shown) [Atenolol]
  Papp: 0.193 ×10⁻⁶ cm/s
